Data published in publication PMC10230156.
These are yes or no findings as the source states them, for the method shown. In cells and extracts the contact can be indirect. Some results given as binding are weak or reduced against the parent protein; the word gives no strength. Sequences can lack the tags named with a protein.

The chains behind the UniProt entries cited, without tags or fusion partners. Residues count along the entry.
UniProt P12314, residues 16-374: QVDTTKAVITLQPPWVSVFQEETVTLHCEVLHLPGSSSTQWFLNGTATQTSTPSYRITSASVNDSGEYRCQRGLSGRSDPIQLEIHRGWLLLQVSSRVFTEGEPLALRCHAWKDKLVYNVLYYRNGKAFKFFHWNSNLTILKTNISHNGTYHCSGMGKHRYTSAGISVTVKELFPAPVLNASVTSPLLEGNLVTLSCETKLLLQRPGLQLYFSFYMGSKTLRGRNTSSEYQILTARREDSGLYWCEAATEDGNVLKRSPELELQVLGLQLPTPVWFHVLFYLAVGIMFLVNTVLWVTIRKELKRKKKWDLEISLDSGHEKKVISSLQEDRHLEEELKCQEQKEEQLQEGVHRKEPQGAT

Target: T1, Histidine‐rich glycoprotein (His-HRG) (UniProt P04196)
T1 sequence: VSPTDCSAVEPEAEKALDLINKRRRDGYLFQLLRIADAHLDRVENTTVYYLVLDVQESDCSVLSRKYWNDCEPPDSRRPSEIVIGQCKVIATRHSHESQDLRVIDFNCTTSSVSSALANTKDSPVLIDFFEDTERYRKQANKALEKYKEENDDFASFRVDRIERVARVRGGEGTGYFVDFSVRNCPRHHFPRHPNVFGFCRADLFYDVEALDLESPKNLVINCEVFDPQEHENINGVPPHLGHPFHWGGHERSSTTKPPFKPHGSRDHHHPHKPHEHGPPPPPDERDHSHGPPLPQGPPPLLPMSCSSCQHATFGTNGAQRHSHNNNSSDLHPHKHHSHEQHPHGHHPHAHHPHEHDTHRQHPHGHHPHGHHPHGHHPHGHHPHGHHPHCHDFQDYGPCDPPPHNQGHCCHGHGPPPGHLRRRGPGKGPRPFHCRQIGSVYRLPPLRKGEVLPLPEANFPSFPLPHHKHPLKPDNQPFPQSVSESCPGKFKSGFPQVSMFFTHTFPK
Test: pull-down; His-pulldown of His-HRG with human neutrophil membrane proteins; FCγR1 detected; only the target purified

For “FCγR1 of the human neutrophil membrane (from UniProt P12314 16-374) (receptor)”, the binding was “binds”.
